Out of some 230,000 compounds screened, about 310 (0.13%) were called active. Inconclusive results, whose numbers are uncertain, are shown with a selection of clear calls. Calls come from the whole dose curve; as a rule, active = well fitted activation curve with a large enough effect; inconclusive = small, poorly fitted or top-dose-only effect; inactive = no such curve, though single readings can be large or run the other way. Potencies beside an inconclusive call are fits to weak or partial responses and may not hold up.
Experiment: qHTS Multiplex Assay to Identify Dual Action Probes in a Cell Model of Huntington: Cytoprotection (ATP); note: nearly all actives have a fitted effect of over 45% in size;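 for cytoprotection (ATP increase): toxic huntingtin expression switched on by the ecdysone agonist tebufenozide; % of control where 0% means no effect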
Settings: PC12 HTT-Q103 induced, ATP luminescence, 40 h; cytoprotection (ATP increase): at 56.4 µM (top of the series)
Summary of the method: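 Cells were plated at 1500 per well in phenol red-free DMEM with 5% equine and 5% calf serum. Tebufenozide (100 nM final) and compounds were added, then ATPlite reagent, and luminescence was read.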
Potency is the fitted concentration of half-maximal effect.

SMILES | Potency | cytoprotection (ATP increase)
CN(C)CCCNc1c2c(nc3ccc(Cl)cc13)CCCC2 | inconclusive: 1.58 µM [activator, full curve, poor fit] | 
CC[N+](CC)(CC)CC | inconclusive: 5.62 µM [activator, partial curve, poor fit] | 
N#CC1=C(N)Oc2c(c(=O)sc3ccccc23)C1c1ccncc1 (stereo not given) |  | inactive: -34.6%
Cc1ccc(-c2nc3ccccc3c(=O)n2-c2cccc(C)n2)cc1 |  | inactive: 4.95% [at 10 µM]
CN1CCN(c2ccc([N+](=O)[O-])c(N3CCCCC3)c2)CC1 | inconclusive: 0.708 µM [activator, single point] | 
C1=C(c2ccccc2)CCNC1 | inconclusive: 5.62 µM [activator, single point] | 
N#CCCC#N | inconclusive: 39.8 µM [activator, single point] | 
ClP(Cl)(Cl)(Cl)Cl | inconclusive: 12.6 µM [activator, single point] | 
C/C(=C\[C@@H](N)C(=O)O)CP(=O)(O)O | inconclusive: 0.447 µM [activator, partial curve] | 
c1ccc2c([C@@H]3CCN(CCN4CCOCC4)C3)c[nH]c2c1 |  | inactive: 1.75% [at 10 µM]
C=CC(N)=O | inconclusive: 25.1 µM [activator, single point] | 
COc1ccc(Oc2cc(NC(=O)c3nn(C)cc3[N+](=O)[O-])cc([N+](=O)[O-])c2)cc1 | inconclusive: 5.62 µM [activator, single point] | 
CNC(=O)[C@H]1C[C@@H]1[C@H](NP(=O)(c1ccccc1)c1ccccc1)c1ccccc1 |  | inactive: 2.75%
CCCCC/C=C\C/C=C\C/C=C\C/C=C\CCCC(=O)Nc1ccc(O)cc1 | inconclusive: 15.8 µM [activator, partial curve, poor fit] | 
CC1CN(c2cc([N+](=O)[O-])ccc2Cl)CC(C)N1 (stereo not given) | inconclusive: 1.58 µM [activator, partial curve] | 
COc1cc(/C=C2/C(=O)NC(=O)N(c3ccc(C)cc3)C2=O)cc(OC)c1OC | inconclusive: 6.31 µM [activator, single point] | 
CC(=O)O/C(=C1/C[C@H]2[C@@H]3CC=C4C[C@@H](OC(C)=O)CC[C@]4(C)[C@@H]3CC[C@]2(C)C1=O)C(F)(F)F |  | inactive: 11.3% [at 10 µM]
Nc1cc(Cl)ccc1Cl | inconclusive: 25.1 µM [activator, single point] | 
CCn1cc(/C=c2/sc3n(c2=O)C2c4ccccc4OC(C)(N=3)C2C(=O)OC)c(C)n1 (stereo not given) | inconclusive: 0.631 µM [activator, single point] | 
N#CC[N+]1(CCCNP2(=O)C=C(c3ccccc3)OC(c3ccccc3)=C2)CCOCC1 | inconclusive: 0.447 µM [activator, single point] | 
CC(=O)Nc1ccc(C(=O)OCC(=O)Nc2ccc(Cl)cc2C(=O)c2ccccc2)cc1 |  | inactive: 11.6% [at 10 µM]
O=P(OCCCl)(OCCCl)OCCCl |  | inactive: 0.038%
Nc1c(C(=O)OCc2ccccc2)c2nc3ccccc3nc2n1Cc1cccs1 |  | inactive: 9.32%

As a working copy, 2 of the compounds above.
SMILES | Potency | cytoprotection (ATP increase)
COc1ccc(Oc2cc(NC(=O)c3nn(C)cc3[N+](=O)[O-])cc([N+](=O)[O-])c2)cc1 | inconclusive: 5.62 µM [activator, single point] | 
CNC(=O)[C@H]1C[C@@H]1[C@H](NP(=O)(c1ccccc1)c1ccccc1)c1ccccc1 |  | inactive: 2.75%

Going on with the list.

SMILES | Potency | cytoprotection (ATP increase)
Oc1ccc(Cl)cc1 | inconclusive: 0.562 µM [activator, full curve] | 
O=C(c1ccncc1)N1CCC2(CC1)CN(Cc1ccccc1)C2 | inconclusive: 2.24 µM [activator, partial curve, poor fit] | 
O=S(=O)(c1ccc(Cl)cc1)c1ccc(Cl)cc1 | inconclusive: 39.8 µM [activator, single point] | 
O=P1(NCCCl)OCCCN1CCCl (stereo not given) | inconclusive: 14.1 µM [activator, single point] | 
COc1ccc(C(=O)c2c(C)n(CCN3CCOCC3)c3cc(I)ccc23)cc1 | inconclusive: 0.891 µM [activator, partial curve] | 
O=C(O)/C=C\CO | inconclusive: 1 µM [activator, single point] | 
COc1ccccc1CN1CC[C@@]2(CCCN(C(=O)Oc3ccccc3)C2)C1 | inconclusive: 5.62 µM [activator, single point] | 
O=[N+]([O-])OC1CO[C@H]2C(O[N+](=O)[O-])COC12 (stereo not given in full) | inconclusive: 4.47 µM [activator, partial curve, poor fit] | 
Cc1cc(N2CCCCC2)ccc1C=C1C(=O)N(C)C(=S)N(C)C1=O |  | inactive: 8.37% [at 10 µM]
O=c1[nH]c(=O)n(Cl)c(=O)n1Cl | active: 14.1 µM | 
Nc1cc(Cl)ccc1O | inconclusive: 12.6 µM [activator, single point] | 
Cc1cc(C=O)c(C)n1C(C)C | inconclusive: 35.5 µM [activator, single point] | 
O=C(CN1CC=C(c2ccccc2)CC1)NC(=O)NC1CCCCC1 |  | inactive: -32.2%
CC(=O)O[C@H]1CC[C@H]2[C@@H]3CCC4=C[C@@H](C5SCCS5)[C@H](OC(C)=O)C[C@]4(C)[C@H]3CC[C@@]12C |  | inactive: 13.7% [at 10 µM]
CN(C)C(=O)Oc1cc(OC(=O)N(C)C)cc([C@@H](O)CNC(C)(C)C)c1 | inconclusive: 8.91 µM [activator, single point] | 
O=[N+]([O-])c1cc([As](=O)(O)O)ccc1O | inconclusive: 0.0501 µM [activator, full curve, poor fit] | 
CNc1ccc(C(=O)CC(O)CCC(C)C2OC(=O)CC(O)CC(=O)CC(O)CC(O)CC(O)CC(O)CC3(O)CC(O)C(C(=O)OC)C(CC(O[C@@H]4OC(C)C(O)C(N)C4O)/C=C/C=C/C=C/C=C/C=C/C=C/C=C/C2C)O3)cc1 (stereo not given in full) | inconclusive: 0.794 µM [activator, full curve, poor fit] | 
N#CCCCl | inconclusive: 15.8 µM [activator, single point] | 
CCCc1nc2ccccc2c(=O)n1-c1cccc(OC)c1 |  | inactive: -13% [at 0.074 µM]
NC(=S)N/N=C/c1coc2ccccc2c1=O | inconclusive: 1.26 µM [activator, single point] | 
CCOP(=S)(OCC)SCCSCC |  | inactive: -10.6%
O=C(Cc1ccccc1)N1CCN(Cc2ccccn2)CC1 |  | inactive: 3.76% [at 10 µM]
